Data as given in PubChem BioAssay AID1259308 (NCATS, 2017)
Shown is a random part of about 59,000 deposited reagents. About 1,510 of them (2.6%) were called active. 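Calls use total luciferase alone and ignore viability, so some active siRNAs may act by altering cell number.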 A number with no mark means an inactive call. The numbers tell different reagents against one gene apart. Not all columns of the deposit are shown.

Assay: 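Candidate targets for better recombinant protein yield in mammalian cells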 (primary screen)
System: human HEK293 embryonic kidney cells stably expressing firefly luciferase (HEK-CMV-Luc2-Hygro)
Knock-down reagent: single siRNA against human genes, 0.8 pmol siRNA per well
Timing: 72 h
Measured: 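Luciferase light (ONE-Glo) measured on one replicate plate set and viability (CellTiter-Glo) on the other, scaled to a negative control siRNA, with robust z-scores and luciferase per cell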
Reading the numbers: total luciferase, z-score: higher = more reporter protein produced
Hit rule: 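An siRNA counts as active if its total luciferase robust z-score exceeds 3; genes with two or more such siRNAs out of three were retested with fresh siRNAs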
Calls: active = raised luciferase; inactive = no rise

What did the screen give for C20orf141 (chromosome 20 open reading frame 141) #1?
total luciferase, z-score: -0.883

What did the screen give for C20orf141 (chromosome 20 open reading frame 141) #2?
total luciferase, z-score: -0.132

For C20orf141 (chromosome 20 open reading frame 141) #3, how do the results read?
total luciferase, z-score: -0.885

For CNNM2 #1, how do the results read?
total luciferase, z-score: -0.803

For CNNM2 #2, how do the results read?
total luciferase, z-score: 0.262

Which result is listed for CNNM2 #3?
total luciferase, z-score: -0.34

With RPL36AL (ribosomal protein L36a like) #1, what does the deposit list?
total luciferase, z-score: 1.02

What is on record for RPL36AL (ribosomal protein L36a like) #2?
total luciferase, z-score: -0.388

For RPL36AL (ribosomal protein L36a like) #3, how do the results read?
total luciferase, z-score: -0.017

For C4BPA (complement component 4 binding protein alpha) #1, what was measured?
total luciferase, z-score: -0.302

With C4BPA (complement component 4 binding protein alpha) #2, what was measured?
total luciferase, z-score: -0.817

What is on record for C4BPA (complement component 4 binding protein alpha) #3?
total luciferase, z-score: 0.965

For FAM174A (family with sequence similarity 174 member A) #1, what was measured?
total luciferase, z-score: -1.11

What is on record for FAM174A (family with sequence similarity 174 member A) #2?
total luciferase, z-score: 0.0813

With FAM174A (family with sequence similarity 174 member A) #3, what does the deposit list?
total luciferase, z-score: -0.388

What did the screen give for NXF1 (nuclear RNA export factor 1) #1?
total luciferase, z-score: -2.39

For NXF1 (nuclear RNA export factor 1) #2, what does the deposit list?
total luciferase, z-score: -2.59

For NXF1 (nuclear RNA export factor 1) #3, what does the deposit list?
total luciferase, z-score: -1.46

For PTRH2 (peptidyl-tRNA hydrolase 2) #1, what was measured?
total luciferase, z-score: 4.58 (active)

What is on record for PTRH2 (peptidyl-tRNA hydrolase 2) #2?
total luciferase, z-score: -0.117

What is on record for PTRH2 (peptidyl-tRNA hydrolase 2) #3?
total luciferase, z-score: -1.56

Which result is listed for NIFK (nucleolar protein interacting with the FHA domain of MKI67) #1?
total luciferase, z-score: -1.43

With NIFK (nucleolar protein interacting with the FHA domain of MKI67) #2, what was measured?
total luciferase, z-score: -1.98

With NIFK (nucleolar protein interacting with the FHA domain of MKI67) #3, what was measured?
total luciferase, z-score: -1.05

With GABRA6 (gamma-aminobutyric acid type A receptor subunit alpha6) #1, what was measured?
total luciferase, z-score: 0.365

With GABRA6 (gamma-aminobutyric acid type A receptor subunit alpha6) #2, what does the deposit list?
total luciferase, z-score: -0.609

What did the screen give for GABRA6 (gamma-aminobutyric acid type A receptor subunit alpha6) #3?
total luciferase, z-score: -0.835

Which result is listed for RHNO1 (RAD9-HUS1-RAD1 interacting nuclear orphan 1) #1?
total luciferase, z-score: -0.799

What is on record for RHNO1 (RAD9-HUS1-RAD1 interacting nuclear orphan 1) #2?
total luciferase, z-score: 0.822

With RHNO1 (RAD9-HUS1-RAD1 interacting nuclear orphan 1) #3, what does the deposit list?
total luciferase, z-score: -1.18

Which result is listed for MX2 (MX dynamin like GTPase 2) #1?
total luciferase, z-score: -0.19

With MX2 (MX dynamin like GTPase 2) #2, how do the results read?
total luciferase, z-score: 0.0288

For MX2 (MX dynamin like GTPase 2) #3, how do the results read?
total luciferase, z-score: -0.215
